The list shows a part of the results.

By UniProt entry, the sequences of proteins in these tests, tags left out.
UniProt Q0JBA9, entry or part of it: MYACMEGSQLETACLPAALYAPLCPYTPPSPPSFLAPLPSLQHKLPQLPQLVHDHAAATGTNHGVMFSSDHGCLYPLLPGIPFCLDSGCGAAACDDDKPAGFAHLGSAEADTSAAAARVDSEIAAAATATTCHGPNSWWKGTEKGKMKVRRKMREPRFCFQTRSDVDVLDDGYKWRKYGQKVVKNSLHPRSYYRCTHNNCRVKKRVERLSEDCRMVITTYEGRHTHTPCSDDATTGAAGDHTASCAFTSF

This experiment deals with OsWRKY34 (Oryza sativa, UniProt Q0JBA9 1-250). Kind of experiment: protein-binding microarray (RPBM); PBS, 2% BSA, 51.3 ng/ul salmon testes DNA, 50 uM zinc acetate, 200 nM TF, 25 C, 1 h; high values mean tight binding. The settings on record: protein: recombinant; tags: N-terminal polyhistidine and DsRed monomer fusion (pET32a); label: CyDye5-dUTP incorporated in the synthesized complementary strand; 3' TTTTT single-stranded linker to array surface; dsDNA, one strand shown. In a few lines: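 A custom Agilent array was converted to double-stranded form by primer extension with Cy5-dUTP and blocked with 2% BSA. Protein at 200 nM in PBS with 2% BSA, salmon testes DNA and 50 µM zinc acetate was applied for 1 h at 25 °C, followed by washing. The proteins were polyhistidine–DsRed N-terminal fusions of transcription factors, expressed in E. coli BL21-CodonPlus and Ni–NTA-purified. The binding signal is per-feature fluorescence intensity (arbitrary units) from an Axon 4000B scanner.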
For “GTAATCCTCAATTTGGGCCGCATTCTTGTTAGCAAAGACCCGGAGTCACCTAGTGCAG”, the binding signal was 8210 fluorescence intensity (a.u.).
The value for “CGACTGCATGGCGCGGTTCGCATGTAACATCTTCTACCTACGGAGTCACCTAGTGCAG” was 8280 fluorescence intensity (a.u.); that for “TGTGTGTCTAGTTAGGGCTACTTCTACTGCTGCTTCTCCTCGGAGTCACCTAGTGCAG” was 8780 fluorescence intensity (a.u.).
In the case of “CCTTCCCCGTCGCGCTCTCCTTGGCGTCGGACATCTTCTCCGGAGTCACCTAGTGCAG” it was 8780 fluorescence intensity (a.u.); in that of “CACCTCAACCTGTCCAGCAATGCTTTCACCGGCGATGTGCCGGAGTCACCTAGTGCAG”, 8590 fluorescence intensity (a.u.); in that of “CACGAAAGCTGCCACGCTTGTTGTGCTCTGACTTCTTCTTCGGAGTCACCTAGTGCAG”, 8080 fluorescence intensity (a.u.).
The value for “TCCGTGCCTAACTTTGATCATCCGTCTTATTTGAAACTTTCGGAGTCACCTAGTGCAG” was 9110 fluorescence intensity (a.u.).
With “ATTTGCCCATTTGGACCTGTTTAGTTGTAAAAAATTTTATCGGAGTCACCTAGTGCAG”, the binding signal was 10300 fluorescence intensity (a.u.).
The value for “TAGCTCCGCCCCTGGCCGTGAAATCGTGGGGAGATTTTCTCGGAGTCACCTAGTGCAG” was 8780 fluorescence intensity (a.u.).
In the case of “TCACCCTGCTTTTTTCCATGGTTAGTCATCGCTGATGGCACGGAGTCACCTAGTGCAG” it was 8160 fluorescence intensity (a.u.); in that of “ATCACACCTTGATCAATCCAAAGAAGCTTACCTCTCATTTCGGAGTCACCTAGTGCAG”, 8380 fluorescence intensity (a.u.).
The value for “AACTAGTGCACAACTACACATCAGCTTCAGTCTGCTCACTCGGAGTCACCTAGTGCAG” was 10400 fluorescence intensity (a.u.).
With “CCCCACGAGAGCCAATCCTGACCGTCCAATCCGCGGCGTCCGGAGTCACCTAGTGCAG”, the binding signal was 9000 fluorescence intensity (a.u.).
In the case of “ATCCTGCTAAGCTCTCCCGGGTTGGAGTCTTCTTCCATTTCGGAGTCACCTAGTGCAG” it was 9050 fluorescence intensity (a.u.); in that of “TACATTAACCTCTGCTTTCTGCGACACGCCGACACCTCCTCGGAGTCACCTAGTGCAG”, 8580 fluorescence intensity (a.u.); in that of “ATACTGTATTCTTACGTTTGACCTGAATGGTCAGCCTCCCCGGAGTCACCTAGTGCAG”, 8780 fluorescence intensity (a.u.).
As to “GTGGGTTTGGTTGGTAGTAAGTTGTTGGTTAGGGCCTCCCCGGAGTCACCTAGTGCAG”, the binding signal was 8580 fluorescence intensity (a.u.).
The value for “CAAATGGCCCACCTGTCCTAGCTTGGCCCGGCCCGGGCACCGGAGTCACCTAGTGCAG” was 8680 fluorescence intensity (a.u.).
The value for “CTTCTCATCCCCTCCGGCCCATCCACCTCGCTTCGCTAGCCGGAGTCACCTAGTGCAG” was 9180 fluorescence intensity (a.u.).
In the case of “GAATCTGCTTCTCATTCTTTTTTTCTTGCTGATCATCATGCGGAGTCACCTAGTGCAG” it was 10200 fluorescence intensity (a.u.); in that of “TCCTTTTCCTACTTCCCTTGGTAACTTGACAAAATTATCTCGGAGTCACCTAGTGCAG”, 9520 fluorescence intensity (a.u.); in that of “GCCATAATTACGCAGGCCGCCATCGTCGTCGTCGTCTTCGCGGAGTCACCTAGTGCAG”, 9210 fluorescence intensity (a.u.).
For “ATTGAATCCGCCTCTCCGCTCCGCTCCGCTCCTTCCGCTCCGGAGTCACCTAGTGCAG”, the binding signal is 8140 fluorescence intensity (a.u.).
For the sequence “TAGTTAACGTTAATTTCTGGTCACCCACCTGTTGACTACCCGGAGTCACCTAGTGCAG”, the binding signal was 8040 fluorescence intensity (a.u.).
The value for “AGATTCTTACAACCTAATTATTTTCACTGCATCCATCACACGGAGTCACCTAGTGCAG” was 10200 fluorescence intensity (a.u.); that for “TATATAGGGAATTTTCTCTACATCTTACCATGCAGTTTTTCGGAGTCACCTAGTGCAG” was 8050 fluorescence intensity (a.u.); that for “GTCCCTCGCCTCCGCTTCCTGATTTTTCTTTTCCCGTTTCCGGAGTCACCTAGTGCAG” was 11800 fluorescence intensity (a.u.).
In the case of “GAAAGAGAGAAGAGTGTTGCTAATGGAGTGTTCTTGTTCACGGAGTCACCTAGTGCAG” it was 8090 fluorescence intensity (a.u.); in that of “AGCGCGCGCAGCTTTGCAGGCGTGGTCGGGGTCGTTGTGCCGGAGTCACCTAGTGCAG”, 9700 fluorescence intensity (a.u.); in that of “TCGTAGGGGTAGAGTTTGCGTGCGTGTGTTCATAGGGGTGCGGAGTCACCTAGTGCAG”, 8600 fluorescence intensity (a.u.).
In the case of “GCCGCTAGTCCTTATCGCCGCCGCCGCCCACCTCGCCATGCGGAGTCACCTAGTGCAG” it was 9030 fluorescence intensity (a.u.).
In the case of “ATGGACCTGAAAGCTGTTTACCTTTTTTTCCATCCTAATCCGGAGTCACCTAGTGCAG”, the binding signal is 8770 fluorescence intensity (a.u.).
In the case of “CGTTTTTTTTTTCATTCCATGTTTGCATTAGCTTCATTTCCGGAGTCACCTAGTGCAG” it was 13400 fluorescence intensity (a.u.); in that of “ATTACCTTGTCACAGACAGCTCGCCGCACTTTCTCCCGAACGGAGTCACCTAGTGCAG”, 10400 fluorescence intensity (a.u.).
The value for “TTTTGTTCATTTACATTCAGCAAACAGTATCCGGTTTGTACGGAGTCACCTAGTGCAG” was 10700 fluorescence intensity (a.u.); that for “TGGTATTGGGATTTGAATGCCTTTTTGTCAATTGTCCCTTCGGAGTCACCTAGTGCAG” was 9280 fluorescence intensity (a.u.); that for “ACCTTACCACAACTGCTGCACCTAATTCAAACCAACCAAACGGAGTCACCTAGTGCAG” was 8540 fluorescence intensity (a.u.).
The value for “TGGTGTGTTTTTTGGGATGTTTCGGTAGGTATTTTGTGATCGGAGTCACCTAGTGCAG” was 12000 fluorescence intensity (a.u.).
“GTTTTTATGATTTCCTATTCGTCCATTATTTTCTTTTTAACGGAGTCACCTAGTGCAG”: the binding signal was 9940 fluorescence intensity (a.u.).
Take “ATGGATTTTTTTATTTTTTCTCCCTTTTTCCTTCTTTTTTCGGAGTCACCTAGTGCAG”: the binding signal was 8690 fluorescence intensity (a.u.).
In the case of “GCATATGAGTCCATGTGTCGATCACCACGTCACGATGACTCGGAGTCACCTAGTGCAG” it was 8110 fluorescence intensity (a.u.).
The value for “CCCCACTTTGGCATGTATATAAGCACACCCAAGCTATCCTCGGAGTCACCTAGTGCAG” was 8040 fluorescence intensity (a.u.).

The record behind these values is paper PMC7819943, “Rice protein-binding microarrays: a tool to detect cis-acting elements near promoter regions in rice”.
